Results taken from the supplement of paper PMC3334620.
In all, about 33,000 sequences were measured (“E-score (-0.5 to 0.5)”: median about -0.016, highest 2% from about 0.3 on). Some of the results follow.

Biological target: T1, Yer184c (UniProt P39961)
T1 sequence: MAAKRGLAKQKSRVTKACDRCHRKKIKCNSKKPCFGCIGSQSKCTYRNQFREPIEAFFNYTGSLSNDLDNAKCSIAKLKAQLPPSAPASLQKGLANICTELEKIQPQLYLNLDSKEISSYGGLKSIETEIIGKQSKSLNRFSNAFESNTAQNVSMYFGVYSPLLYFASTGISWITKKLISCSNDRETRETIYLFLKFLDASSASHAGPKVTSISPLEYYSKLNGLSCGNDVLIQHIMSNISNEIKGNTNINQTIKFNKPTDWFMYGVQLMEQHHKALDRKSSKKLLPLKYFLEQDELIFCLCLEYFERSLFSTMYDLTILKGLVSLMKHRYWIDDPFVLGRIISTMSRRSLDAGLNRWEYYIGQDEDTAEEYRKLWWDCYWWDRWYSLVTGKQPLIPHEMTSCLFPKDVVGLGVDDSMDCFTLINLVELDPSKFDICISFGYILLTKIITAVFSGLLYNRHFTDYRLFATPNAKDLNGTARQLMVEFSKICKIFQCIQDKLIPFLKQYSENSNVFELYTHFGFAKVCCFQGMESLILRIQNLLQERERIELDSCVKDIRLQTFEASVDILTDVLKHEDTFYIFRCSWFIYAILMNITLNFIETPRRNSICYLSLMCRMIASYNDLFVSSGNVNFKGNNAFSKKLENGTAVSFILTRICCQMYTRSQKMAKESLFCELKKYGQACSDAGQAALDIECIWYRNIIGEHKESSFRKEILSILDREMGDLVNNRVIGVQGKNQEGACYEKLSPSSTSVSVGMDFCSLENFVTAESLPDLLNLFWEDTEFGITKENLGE
Experiment: PBM E-score (8-mer binding enrichment) (E-score (-0.5 to 0.5)); higher = stronger / more preferred TF binding
Conditions: protein concentration: 100 nM; construct: GST-full length
In short: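 Bound GST-tagged yeast transcription factors, applied at about 100-200 nM to double-stranded universal all-10-mer Agilent arrays, were detected with fluorescent anti-GST. Scans were normalised with masliner. A modified Wilcoxon-Mann-Whitney statistic, the E-score, was assigned to each ungapped eight-base word pooled with its reverse complement by the Universal PBM Analysis Suite.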

Sequence	PBM E-score
AGAAAGTG	-0.192
ATTGCATC	-0.0114
CTTTTCCC	0.0534
GGGGCACC	-0.221
ATACAATG	0.106
AATGGGAA	-0.226
AACATGGC	-0.317
CGGTGAAA	0.289
AAGAAGAT	0.237
GCTCCACA	-0.163
GAAAAAGC	0.225
ACGAAAAG	0.187
CAACTGAC	-0.106
ATCACAAC	0.0548
AGAGCCTA	-0.118
AGCGCCGA	0.357
TCTGCAAA	-0.00157
GTACATAC	0.0462
GCAATAGA	-0.0314
AACACGTT	-0.13
CTCCTTTA	-0.0659
AAGAAATA	0.163
ATGCTATA	0.00492
CCGTTCCA	0.0249
TCTGACAA	0.15

Single values from the results shown:
In PBM E-score, CGGTGAAA has 0.289
In PBM E-score, CCGTTCCA has 0.0249
In PBM E-score, TCTGACAA has 0.15
In PBM E-score, GGGGCACC has -0.221

Additional entries

Sequence	PBM E-score
CGCAACTA	-0.00988
AGCTATTA	-0.0699
GAGCCTAA	-0.0836
GAAGGCGC	-0.184
ATAATTCA	0.208
CGTTAACG	-0.0399
TGCCGTAA	0.0109
CAAGAACC	0.156
AGAGTGTG	-0.16
ACAGTTAG	-0.134
ACACATAG	0.00943
GACTCGTA	-0.0872
CACTATGG	-0.176
CAATCCAG	0.0394
CTTTACGC	0.0875
AGCGTCAT	-0.0378
CAAAGCGG	0.0871
AAACTTCA	0.134
ACATAAGT	0.0642
GATTAAGC	0.215
CTCCCCGA	-0.0658
CAAATCTG	-0.11
AATTTAGC	0.0407
CACTACAA	0.0945
ACGCGACG	-0.123

Sequence	PBM E-score
AAAGTTCT	-0.0439
ACGGCGAT	0.188
AAAGACCG	-0.0408
GAAACTGA	0.0115
CCGACCTA	0.0204
ATCGAGAT	-0.0939
GCACTCCC	-0.124
CGCCTTGA	-0.135
TCGGTCAA	0.184
CGTCGCTA	-0.113
GCCACCGC	-0.115
ATCGGTTA	0.246
GAAGAAAA	0.24
CTTTATTC	0.0145
CCCTGGCC	-0.262
CGAGTCTC	-0.227
CGACCTAA	0.265
GTTTATAA	0.251
ACCCGTGC	-0.123
CATAGTCA	-0.147
CCTGCAGG	-0.14
CAAGATTG	-0.081
AGAAGAGG	-0.184
ATAACTAC	0.0239
CACCCCTC	-0.221

Seven successive records out of the list so far, quoted:
Sequence	PBM E-score
ACCCGTGC	-0.123
CATAGTCA	-0.147
CCTGCAGG	-0.14
CAAGATTG	-0.081
AGAAGAGG	-0.184
ATAACTAC	0.0239
CACCCCTC	-0.221

(cont.)

Sequence	PBM E-score
CCCATACA	-0.258
ACCTAAAC	0.0973
ATGCCTGG	-0.17
GCTACGTA	-0.0292
ACTTGCAT	-0.0256
ATTGCAGC	-0.14
ACAGCGGG	-0.113
CAGAACGA	-9e-05
CATAGGAC	-0.224
AGATCGCC	-0.0516
AGAAACCA	0.00764
GGGGAAAA	-0.0216
ATCCTAGC	-0.175
GTTCTACA	-0.14
CGGCTGCA	0.278
AAGTAAAC	0.0444
GTCGCCAC	-0.284
ATGGATAC	0.0807
AAACAAAG	0.0857
TCTGGTAA	0.0307
CGTGGCAA	-0.0803
TCATTTAA	0.0211
CGATAGTC	0.0184
AGAACTCT	-0.177
GTACCGAC	0.0552

Sequence	PBM E-score
GAGAGGCA	-0.0809
AGGCACCG	-0.122
CCACACCA	-0.0912
ATACCGGC	0.263
CTGTTTAA	0.0786
AATCGCAA	0.124
CTTTCGGC	0.201
CCTTCGTA	-0.0851
CACATCTG	-0.209
AGTACGGG	-0.172
TAAGCTAA	0.138
AAGGGCAG	-0.223
ACAGTAAA	0.101
GGATTGGA	-0.0491
CGACTTAC	0.0007
GAGTGACC	-0.127
GGCAATTA	0.061
CCCACCTA	-0.241
TATAACGA	0.0709
ATCGGCTA	0.265
ACGAGTGC	-0.105
ACTAAACC	0.136
CAGAATCC	0.0788
CCGTTGAA	0.106
GCGTAACC	-0.237

Sequence	PBM E-score
ATGGTTAC	0.0408
CGCCACCA	-0.27
CATATAGC	-0.00379
GGGTGGCA	-0.2
GGTCCCAC	-0.209
AGACGCGC	-0.123
CGACCCGA	0.0439
AAGAATGT	0.09
CCAGGCGG	0.106
AGGTCGAA	-0.0466
CATACACG	0.0872
CTGCAGGA	0.128
CGAGCTCA	0.144
CAGGTAAG	-0.147
AGGCGGTA	-0.135
CCATAAAC	-0.15
GTAAGCGA	0.00236
GAATGACA	0.0817
TCCGAGAA	0.324
AATAGCGT	0.0642
GCTAATAC	0.0878
CTCTTCCA	0.12
ACATTATA	0.105
ATTACAAG	0.0635
CACGGGGA	-0.0205

Sequence	PBM E-score
ATAACGGG	-0.0327
TTGATAAA	0.329
ATGAATCA	0.111
GACAAGTC	-0.131
CCGTATCA	0.228
ATTAAGGC	0.0774
CACTTTAC	-0.0215
AGGACGCC	-0.0847
CTAATCAA	0.134
CGTCTAAC	0.0407
CAGCGAAA	0.0997
GGTTACGA	-0.00282
ATGGGGTG	-0.23
GTGGCCTA	-0.208
CCCTTTCA	-0.192
ATATAGCA	-0.12
ACACGCGG	0.131
GCTACACC	-0.143
CAAACCAA	0.0827
ACATGTAG	-0.00247
GCCTGGAA	-0.17
GATCGGAC	0.322
ATATGCAC	-0.107
AGGTGGTC	-0.259
GTTACCCA	-0.139

Sequence	PBM E-score
AAGTATCA	0.0809
ATCGTTGG	0.0597
AAGATTAC	-0.0157
ACCTGAGG	-0.215
GCGATAGA	-0.092
ATTGCATA	0.0949
ATGATGCA	0.142
AACACGAG	0.0172
CCGCAGAG	-0.245
ACTGATAT	0.0537
AGCTAACC	-0.0846
ACACAAAT	0.2
AAGCATGG	-0.21
CAACACTG	-0.0678
CGCTACCC	-0.137
AAACTGCC	0.0723
CGTTCAGA	-0.0522
CGGCGATA	0.36
AGTACAAA	-0.0454
CGATAACA	0.145
GACGATAA	0.043
AAATTTAT	0.286
CCGACTAG	-0.036
CTTAATGA	-0.0707
AGCGGCAT	0.194

Sequence	PBM E-score
GTCCAGGA	-0.119
GCATTTCC	0.0434
TTCACCAA	0.0242
AGTATCAC	-0.0275
AATCACGG	0.189
GATCTTCC	0.152
AGAAGCCA	-0.0195
ATGAGGAG	-0.161
CCCGTCAC	-0.172
ATCGATGC	-0.0236
CCGCGAAA	0.178
AGCCGTGC	0.0424
ACTTAATA	0.182
CAAAGCTA	0.112
ACGCCAAA	-0.133
GGATTGAC	-0.0184
GTCGTACA	-0.151
ATGCGGAA	0.271
CCACACGG	-0.0813
